According to article doi:10.1101/2023.06.08.544225:
These are yes or no findings as the source states them, for the method shown. Binding seen in cells or lysates may run through a third protein. A yes stands for co-enrichment or nearness to the bait. Other partners may have been found. Values belong to the molecule of their own block, whether it stands above or below them.

The chains behind the UniProt entries cited, without tags or fusion partners.
UniProt O75643: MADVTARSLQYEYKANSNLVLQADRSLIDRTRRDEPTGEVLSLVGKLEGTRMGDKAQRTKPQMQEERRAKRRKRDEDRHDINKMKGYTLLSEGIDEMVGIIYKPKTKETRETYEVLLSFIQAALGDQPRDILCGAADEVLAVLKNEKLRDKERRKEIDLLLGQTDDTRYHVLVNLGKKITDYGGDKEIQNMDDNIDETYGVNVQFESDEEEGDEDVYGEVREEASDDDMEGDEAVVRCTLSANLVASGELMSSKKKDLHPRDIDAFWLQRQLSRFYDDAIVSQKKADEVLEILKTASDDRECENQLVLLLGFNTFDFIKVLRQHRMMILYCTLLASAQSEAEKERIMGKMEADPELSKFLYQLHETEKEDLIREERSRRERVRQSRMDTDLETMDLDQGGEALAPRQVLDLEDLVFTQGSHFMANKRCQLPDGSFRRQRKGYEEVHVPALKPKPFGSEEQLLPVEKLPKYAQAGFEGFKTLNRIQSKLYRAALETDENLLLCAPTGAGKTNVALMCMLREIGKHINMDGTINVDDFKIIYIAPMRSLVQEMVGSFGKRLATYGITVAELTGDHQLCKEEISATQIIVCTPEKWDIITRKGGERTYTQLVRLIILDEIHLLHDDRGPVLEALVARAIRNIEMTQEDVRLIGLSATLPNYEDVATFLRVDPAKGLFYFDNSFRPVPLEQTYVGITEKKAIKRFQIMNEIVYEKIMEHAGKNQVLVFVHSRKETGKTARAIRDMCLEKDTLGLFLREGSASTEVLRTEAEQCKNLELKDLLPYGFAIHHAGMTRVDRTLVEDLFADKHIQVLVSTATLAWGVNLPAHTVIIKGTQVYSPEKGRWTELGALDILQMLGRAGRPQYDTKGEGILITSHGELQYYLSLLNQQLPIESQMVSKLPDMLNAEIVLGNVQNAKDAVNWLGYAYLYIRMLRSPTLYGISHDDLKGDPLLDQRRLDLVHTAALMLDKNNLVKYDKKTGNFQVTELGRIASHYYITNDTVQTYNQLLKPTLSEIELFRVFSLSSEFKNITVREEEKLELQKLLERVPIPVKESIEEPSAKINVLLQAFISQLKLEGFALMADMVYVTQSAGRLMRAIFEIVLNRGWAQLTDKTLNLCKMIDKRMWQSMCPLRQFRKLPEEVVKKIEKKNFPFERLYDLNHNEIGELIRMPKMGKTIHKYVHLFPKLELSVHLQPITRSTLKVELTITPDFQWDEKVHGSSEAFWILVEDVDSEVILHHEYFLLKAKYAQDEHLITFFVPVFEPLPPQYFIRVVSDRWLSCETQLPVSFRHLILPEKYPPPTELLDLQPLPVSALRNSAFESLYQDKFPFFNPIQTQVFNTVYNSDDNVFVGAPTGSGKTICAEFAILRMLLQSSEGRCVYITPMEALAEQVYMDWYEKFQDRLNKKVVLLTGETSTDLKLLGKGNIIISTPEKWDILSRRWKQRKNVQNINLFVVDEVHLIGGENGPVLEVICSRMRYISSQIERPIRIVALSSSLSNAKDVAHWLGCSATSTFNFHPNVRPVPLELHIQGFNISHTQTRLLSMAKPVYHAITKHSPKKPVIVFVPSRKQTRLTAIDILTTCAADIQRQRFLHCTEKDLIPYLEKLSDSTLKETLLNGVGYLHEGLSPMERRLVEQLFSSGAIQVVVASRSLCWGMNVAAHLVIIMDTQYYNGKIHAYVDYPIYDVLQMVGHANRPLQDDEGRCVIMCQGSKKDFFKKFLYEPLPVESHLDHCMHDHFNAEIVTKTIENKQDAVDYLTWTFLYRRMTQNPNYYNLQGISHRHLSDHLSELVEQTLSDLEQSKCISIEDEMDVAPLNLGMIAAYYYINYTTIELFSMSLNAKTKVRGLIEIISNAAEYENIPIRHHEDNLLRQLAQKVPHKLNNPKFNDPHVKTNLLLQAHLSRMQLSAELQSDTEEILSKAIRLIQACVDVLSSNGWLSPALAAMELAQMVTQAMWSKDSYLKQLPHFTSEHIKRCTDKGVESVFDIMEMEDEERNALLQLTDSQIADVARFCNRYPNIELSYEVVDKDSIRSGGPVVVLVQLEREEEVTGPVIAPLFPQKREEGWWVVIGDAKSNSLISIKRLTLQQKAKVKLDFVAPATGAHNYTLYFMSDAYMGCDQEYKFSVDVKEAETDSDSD
UniProt P49736: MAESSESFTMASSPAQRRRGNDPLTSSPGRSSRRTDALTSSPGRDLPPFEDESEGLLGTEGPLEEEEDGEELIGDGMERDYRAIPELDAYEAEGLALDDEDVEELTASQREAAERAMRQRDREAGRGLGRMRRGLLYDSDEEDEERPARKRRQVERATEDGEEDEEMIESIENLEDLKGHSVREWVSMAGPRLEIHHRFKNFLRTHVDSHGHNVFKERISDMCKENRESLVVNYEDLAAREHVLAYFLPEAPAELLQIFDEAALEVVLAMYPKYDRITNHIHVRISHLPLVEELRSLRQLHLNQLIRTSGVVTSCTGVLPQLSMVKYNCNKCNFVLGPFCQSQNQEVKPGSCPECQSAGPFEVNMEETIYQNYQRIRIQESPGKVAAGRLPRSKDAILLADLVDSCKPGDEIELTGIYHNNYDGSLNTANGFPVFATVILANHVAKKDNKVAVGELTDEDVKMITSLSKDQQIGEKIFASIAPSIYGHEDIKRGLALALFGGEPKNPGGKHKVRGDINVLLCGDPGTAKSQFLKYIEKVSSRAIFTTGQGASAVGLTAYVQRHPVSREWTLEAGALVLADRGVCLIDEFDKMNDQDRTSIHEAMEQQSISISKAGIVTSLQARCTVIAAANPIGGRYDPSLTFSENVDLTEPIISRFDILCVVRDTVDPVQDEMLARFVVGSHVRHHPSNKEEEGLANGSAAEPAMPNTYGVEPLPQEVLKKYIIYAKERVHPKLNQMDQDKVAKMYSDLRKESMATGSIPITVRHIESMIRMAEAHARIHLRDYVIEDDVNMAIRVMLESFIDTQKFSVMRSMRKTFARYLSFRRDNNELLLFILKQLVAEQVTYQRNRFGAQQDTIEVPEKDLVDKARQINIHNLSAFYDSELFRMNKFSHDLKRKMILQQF
UniProt Q13283: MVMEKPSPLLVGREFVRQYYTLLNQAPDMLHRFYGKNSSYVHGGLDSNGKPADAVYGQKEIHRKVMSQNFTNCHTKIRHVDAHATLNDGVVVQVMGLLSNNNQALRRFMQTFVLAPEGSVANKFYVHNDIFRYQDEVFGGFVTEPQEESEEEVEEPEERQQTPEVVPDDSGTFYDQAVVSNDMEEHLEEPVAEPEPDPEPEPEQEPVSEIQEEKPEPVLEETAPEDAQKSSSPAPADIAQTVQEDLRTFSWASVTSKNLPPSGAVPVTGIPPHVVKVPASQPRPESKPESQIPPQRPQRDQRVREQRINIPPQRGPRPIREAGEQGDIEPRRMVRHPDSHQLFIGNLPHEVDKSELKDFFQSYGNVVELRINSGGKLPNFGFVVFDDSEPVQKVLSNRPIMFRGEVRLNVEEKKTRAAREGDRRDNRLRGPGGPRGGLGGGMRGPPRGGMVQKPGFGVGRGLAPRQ
UniProt Q9Y5B9: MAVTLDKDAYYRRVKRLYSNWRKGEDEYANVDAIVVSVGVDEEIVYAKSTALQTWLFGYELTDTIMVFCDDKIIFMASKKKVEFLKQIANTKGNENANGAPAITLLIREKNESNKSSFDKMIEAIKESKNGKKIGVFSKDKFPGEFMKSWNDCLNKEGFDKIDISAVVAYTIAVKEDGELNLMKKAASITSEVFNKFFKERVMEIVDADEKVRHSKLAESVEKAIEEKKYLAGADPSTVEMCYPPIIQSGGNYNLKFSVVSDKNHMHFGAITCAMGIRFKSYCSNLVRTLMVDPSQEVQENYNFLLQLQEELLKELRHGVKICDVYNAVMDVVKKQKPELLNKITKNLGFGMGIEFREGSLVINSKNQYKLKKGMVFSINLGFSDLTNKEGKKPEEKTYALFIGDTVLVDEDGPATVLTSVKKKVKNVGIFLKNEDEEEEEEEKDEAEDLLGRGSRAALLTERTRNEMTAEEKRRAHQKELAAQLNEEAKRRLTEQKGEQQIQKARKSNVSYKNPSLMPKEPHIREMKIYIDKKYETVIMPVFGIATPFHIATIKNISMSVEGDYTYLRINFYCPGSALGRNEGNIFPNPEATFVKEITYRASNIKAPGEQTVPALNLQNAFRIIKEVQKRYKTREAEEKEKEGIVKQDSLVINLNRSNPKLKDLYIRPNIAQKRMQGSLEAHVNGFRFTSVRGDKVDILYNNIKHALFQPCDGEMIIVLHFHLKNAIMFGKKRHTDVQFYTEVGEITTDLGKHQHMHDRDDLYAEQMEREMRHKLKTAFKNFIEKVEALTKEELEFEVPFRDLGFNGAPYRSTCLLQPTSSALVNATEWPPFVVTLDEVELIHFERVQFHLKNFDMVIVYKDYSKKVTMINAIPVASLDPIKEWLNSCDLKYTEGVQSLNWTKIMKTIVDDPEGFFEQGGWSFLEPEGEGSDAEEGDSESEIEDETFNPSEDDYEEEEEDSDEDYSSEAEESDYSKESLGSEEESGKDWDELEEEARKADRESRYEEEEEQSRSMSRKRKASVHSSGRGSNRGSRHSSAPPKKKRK

Legend:
[1] = target: SNRNP200 (human (endogenous in HEK293XT)) (UniProt O75643); experiment: affinity purification with mass spectrometry; IP of the endogenous bait (10 µg antibody on Dynabeads Protein G, overnight 4°C) from HEK293XT lysate (150 mM NaCl, 50 mM Tris pH 7.5, 1% IGPAL-CA-630, 5% glycerol), triplicate, TMT11 LC-MS/MS; hit found in both arms, with and without RNase ('direct'), or arm not told
[2] = target: minichromosome maintenance complex component II (MCM2) (human (endogenous in HEK293XT)) (UniProt P49736); experiment: as above
[3] = target: minichromosome maintenance complex component II (MCM2) (human (endogenous in HEK293XT)) (UniProt P49736); experiment: affinity purification with mass spectrometry; same IP-MS, arm with RNase treatment of the HEK293XT lysate (5 µl of 10 mg/ml RNase per ~200 µl, 20 min on ice); hits found only here are called 'RNA-shielded'
[4] = target: minichromosome maintenance complex component II (MCM2) (human (endogenous in HEK293XT)) (UniProt P49736); experiment: affinity purification with mass spectrometry; IP of the endogenous bait (10 µg antibody on Dynabeads Protein G, overnight 4°C) from HEK293XT lysate (150 mM NaCl, 50 mM Tris pH 7.5, 1% IGPAL-CA-630, 5% glycerol), triplicate, TMT11 LC-MS/MS; hit found in both arms, with and without RNase ('direct'), or arm not told; remark: listed apart in the source
[5] = target: SNRNP200 (human (endogenous in HEK293XT)) (UniProt O75643); experiment: affinity purification with mass spectrometry; same IP-MS, arm with RNase treatment of the HEK293XT lysate (5 µl of 10 mg/ml RNase per ~200 µl, 20 min on ice); hits found only here are called 'RNA-shielded'

Molecule: G3BP1 (from UniProt Q13283 1-466)
binding [1]: binds

Molecule: SUPT16H (from UniProt Q9Y5B9 1-1047)
binding [2]: binds

B2: DNAJC9 (protein, UniProt Q8WXX5 1-260)
chain: MGLLDLCEEVFGTADLYRVLGVRREASDGEVRRGYHKVSLQVHPDRVGEGDKEDATRRFQILGKVYSVLSDREQRAVYDEQGTVDEDSPVLTQDRDWEAYWRLLFKKISLEDIQAFEKTYKGSEEELADIKQAYLDFKGDMDQIMESVLCVQYTEEPRIRNIIQQAIDAGEVPSYNAFVKESKQKMNARKRRAQEEAKEAEMSRKELGLDEGVDSLKAAIQSRQKDRQKEMDNFLAQMEAKYCKSSKGGGKKSALKKEKK
binding [4]: binds

Second part, the molecule after the results:

binding [3]: binds
B1: NCOA5 (protein, UniProt Q9HCD5 1-579)
chain: MNTAPSRPSPTRRDPYGFGDSRDSRRDRSPIRGSPRREPRDGRNGRDARDSRDIRDPRDLRDHRHSRDLRDHRDSRSVRDVRDVRDLRDFRDLRDSRDFRDQRDPMYDRYRDMRDSRDPMYRREGSYDRYLRMDDYCRRKDDSYFDRYRDSFDGRGPPGPESQSRAKERLKREERRREELYRQYFEEIQRRFDAERPVDCSVIVVNKQTKDYAESVGRKVRDLGMVVDLIFLNTEVSLSQALEDVSRGGSPFAIVITQQHQIHRSCTVNIMFGTPQEHRNMPQADAMVLVARNYERYKNECREKEREEIARQAAKMADEAILQERERGGPEEGVRGGHPPAIQSLINLLADNRYLTAEETDKIINYLRERKERLMRSSTDSLPGPISRQPLGATSGASLKTQPSSQPLQSGQVLPSATPTPSAPPTSQQELQAKILSLFNSGTVTANSSSASPSVAAGNTPNQNFSTAANSQPQQRSQASGNQPPSILGQGGSAQNMGPRPGAPSQGLFGQPSSRLAPASNMTSQRPVSSTGINFDNPSVQKALDTLIQSGPALSHLVSQTTAQMGQPQAPMGSYQRHY

binding [5]: binds
B3: AQR (protein, UniProt O60306 1-1485)
chain: MAAPAQPKKIVAPTVSQINAEFVTQLACKYWAPHIKKKSPFDIKVIEDIYEKEIVKSRFAIRKIMLLEFSQYLENYLWMNYSPEVSSKAYLMSICCMVNEKFRENVPAWEIFKKKPDHFPFFFKHILKAALAETDGEFSLHEQTVLLLFLDHCFNSLEVDLIRSQVQQLISLPMWMGLQLARLELELKKTPKLRKFWNLIKKNDEKMDPEAREQAYQERRFLSQLIQKFISVLKSVPLSEPVTMDKVHYCERFIELMIDLEALLPTRRWFNTILDDSHLLVHCYLSNLVRREEDGHLFSQLLDMLKFYTGFEINDQTGNALTENEMTTIHYDRITSLQRAAFAHFPELYDFALSNVAEVDTRESLVKFFGPLSSNTLHQVASYLCLLPTLPKNEDTTFDKEFLLELLVSRHERRISQIQQLNQMPLYPTEKIIWDENIVPTEYYSGEGCLALPKLNLQFLTLHDYLLRNFNLFRLESTYEIRQDIEDSVSRMKPWQSEYGGVVFGGWARMAQPIVAFTVVEVAKPNIGENWPTRVRADVTINLNVRDHIKDEWEGLRKHDVCFLITVRPTKPYGTKFDRRRPFIEQVGLVYVRGCEIQGMLDDKGRVIEDGPEPRPNLRGESRTFRVFLDPNQYQQDMTNTIQNGAEDVYETFNIIMRRKPKENNFKAVLETIRNLMNTDCVVPDWLHDIILGYGDPSSAHYSKMPNQIATLDFNDTFLSIEHLKASFPGHNVKVTVEDPALQIPPFRITFPVRSGKGKKRKDADVEDEDTEEAKTLIVEPHVIPNRGPYPYNQPKRNTIQFTHTQIEAIRAGMQPGLTMVVGPPGTGKTDVAVQIISNIYHNFPEQRTLIVTHSNQALNQLFEKIMALDIDERHLLRLGHGEEELETEKDFSRYGRVNYVLARRIELLEEVKRLQKSLGVPGDASYTCETAGYFFLYQVMSRWEEYISKVKNKGSTLPDVTEVSTFFPFHEYFANAPQPIFKGRSYEEDMEIAEGCFRHIKKIFTQLEEFRASELLRSGLDRSKYLLVKEAKIIAMTCTHAALKRHDLVKLGFKYDNILMEEAAQILEIETFIPLLLQNPQDGFSRLKRWIMIGDHHQLPPVIKNMAFQKYSNMEQSLFTRFVRVGVPTVDLDAQGRARASLCNLYNWRYKNLGNLPHVQLLPEFSTANAGLLYDFQLINVEDFQGVGESEPNPYFYQNLGEAEYVVALFMYMCLLGYPADKISILTTYNGQKHLIRDIINRRCGNNPLIGRPNKVTTVDRFQGQQNDYILLSLVRTRAVGHLRDVRRLVVAMSRARLGLYIFARVSLFQNCFELTPAFSQLTARPLHLHIIPTEPFPTTRKNGERPSHEVQIIKNMPQMANFVYNMYMHLIQTTHHYHQTLLQLPPAMVEEGEEVQNQETELETEEEAMTVQADIIPSPTDTSCRQETPAFQTDTTPSETGATSTPEAIPALSETTPTVVGAVSAPAEANTPQDATSAPEETK
